Experimental data taken from PubChem BioAssay AID662 (National Center for Advancing Translational Sciences (NCATS), 2007).
The other results are listed elsewhere or left out. Further columns of the screen follow, without active or inactive calls. The list favours compounds with an active or inconclusive main result. Potencies come from curve fits of mixed quality, noted in brackets.

Assay: Cell signaling CRE-BLA (Fsk stim)
Details: CHO CRE-bla reporter (cAMP response element driving beta-lactamase), forskolin EC10, beta-lactamase ratio; measured here: 460 nm blue channel
How it was run: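 Titrated compounds plus EC10 NKH 477 on CHO CRE-bla cells, 3 h, 37 °C. CCF4, 2 h RT. Ratio 460/530 nm → AC50.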

SMILES	AC50
Cc1ccc(NC(=O)/C(CN(C)C)=N\O)cc1	12.6 µM [falling, single point]
O=C(c1cccc(F)c1)N1CCC2(CCCN(c3ccccc3)C2)CC1	25.1 µM [rising, single point]
CCCCc1c(C)nn(-c2nnc3c4ccccc4n(CC)c3n2)c1C	1.26 µM [rising, full curve]
c1ccc(-c2csc(Nc3nc(N4CCOCC4)nc(N4CCOCC4)n3)n2)cc1	1.26 µM [rising, full curve]
Cc1ccc2nc(NC(=O)CCNS(=O)(=O)c3ccc(Br)s3)sc2c1	0.794 µM [falling, partial curve]
Cn1c(-c2ccc(F)cc2)cnc1SCC(=O)Nc1ccccc1N1CCOCC1	20 µM [rising, single point]
c1ccc2sc(SN3CCOCC3)nc2c1	0.316 µM [falling, full curve, poor fit]
COC(=O)c1ccc(C2C3=C(Nc4nnnn42)c2ccccc2OC3)cc1 (centres undefined)	10 µM [rising, partial curve]
COC(=O)CSc1nnc(-c2cccs2)n1-c1ccc(Cl)cc1	12.6 µM [falling, partial curve]
CCC(C)NC(=O)c1c(N)n(/N=C/c2ccccn2)c2nc3ccccc3nc12 (centres undefined)	5.01 µM [rising, partial curve]
O=C(Cn1nnc(-c2ccccc2)n1)OCc1ccccc1	3.98 µM [falling, single point]
COc1ccccc1-c1nc(NCc2cccnc2)c2ccccc2n1	6.31 µM [rising, partial curve]
COC(=O)c1c(-c2ccc(F)cc2)csc1NC(=O)c1ccco1	0.794 µM [rising, full curve]
COc1cccc(-c2ccc3ncnc(NCc4ccccc4OC)c3c2)c1	3.98 µM [rising, partial curve, poor fit]
Cc1ccc(S(=O)(=O)N[C@@H](Cc2ccccc2)C(=O)CCl)cc1	10 µM [falling, full curve]
COc1ccc(CNC(=O)Nc2cccc(C)c2)cc1	0.501 µM [falling, full curve, poor fit]
CCCn1c(N2CCC(Cc3ccccc3)CC2)nc2c1c(=O)[nH]c(=O)n2C	25.1 µM [falling, single point]
CCC/C=C(\CCC)C(NS(=O)(=O)c1ccc(Cl)cc1)c1ccccc1 (centres undefined)	3.16 µM [rising, single point]
CCNc1ncc2ncc(=O)n(Cc3cccs3)c2n1	12.6 µM [falling, single point]
Cc1ccccc1-n1nc2c(c1NC(=O)c1cc3ccccc3oc1=O)CS(=O)(=O)C2	1.26 µM [rising, full curve]
N#Cc1c(C(F)(F)F)cc(-c2ccccc2)nc1SCc1nc(N)nc(N2CCOCC2)n1	2.51 µM [rising, full curve]
Cc1ccc(C(=O)Oc2ccc3c(c2)ncn3C)cc1	0.01 µM [falling, full curve, poor fit]
CCc1nc(SCc2ccc(C(=O)OC)o2)c2c(=O)n(C)c(=O)n(C)c2n1	2 µM [rising, full curve]

Among those listed so far, three contain an aryl methoxy group:
SMILES	AC50
COc1ccccc1-c1nc(NCc2cccnc2)c2ccccc2n1	6.31 µM [rising, partial curve]
COc1cccc(-c2ccc3ncnc(NCc4ccccc4OC)c3c2)c1	3.98 µM [rising, partial curve, poor fit]
COc1ccc(CNC(=O)Nc2cccc(C)c2)cc1	0.501 µM [falling, full curve, poor fit]

The listing continues:

SMILES	AC50
Cc1ccc(C)c(N2CCN(C(=O)COc3cc(=O)n(C)c4ccccc34)CC2)c1	5.01 µM [rising, single point]
CNc1nnc(CSc2nc(C)cc(C)n2)s1	0.631 µM [rising, full curve, poor fit]
O=c1cc(CO)occ1O	31.6 µM [falling, single point]
CCc1cc2c(CN3CCN(CC)CC3)cc(=O)oc2cc1O	10 µM [rising, partial curve]
CC(C)n1c(SCC(=O)N2c3ccccc3Sc3ccccc32)nc2c1c(=O)n(C)c(=O)n2C	1.26 µM [rising, partial curve]
CC[N+](CC)(CC)C/C(N)=N/O	5.01 µM [falling, full curve, poor fit]
COc1ccccc1N=c1scc(-c2ccc3c(c2)NC(=O)CO3)n1CC1CCCO1 (centres undefined)	3.98 µM [falling, partial curve]
COCCN1C(=O)c2oc3cc(C)c(C)cc3c(=O)c2C1c1cccc(O)c1 (centres undefined)	25.1 µM [rising, single point]
NC1CCN(c2cccc(Cl)n2)CC1	0.0316 µM [falling, full curve, poor fit]
CCN(CC)c1cc2nonc2c2nonc12	0.0158 µM [falling, full curve]
CCOC(=O)N1CCN(C(=O)Cn2cc3c(n2)CCCC3)CC1	0.126 µM [falling, full curve, poor fit]
Cc1ccc(-n2c(SCC(=O)Nc3nccs3)nc3c(c2=O)SCC3)cc1	20 µM [rising, single point]
Cn1c(=O)n(C)c2cc(NC(=O)C(F)(F)F)ccc21	10 µM [rising, single point]
Cc1ccc(-c2nnn(CCC(=O)N3CCCCC3C)n2)cc1 (centres undefined)	0.0794 µM [falling, single point]
O=C(NC1=NCCS1)c1ccncc1	0.158 µM [falling, single point]
Cc1cccn2c(=O)c3cc(C(=O)NC4CCCC4)c(=N)n(C4CCCC4)c3nc12	5.01 µM [rising, partial curve]
CCc1nc(SCC(=O)Nc2ccc3c(c2)OCCO3)c2oc3ccccc3c2n1	0.316 µM [rising, full curve]
O=c1[nH]c(=S)[nH]c2c1CN(CCCN1CCOCC1)CN2	3.98 µM [rising, single point]
O=C(CCC(=O)c1cccs1)OCc1nnc(-c2ccccc2)o1	3.98 µM [falling, single point]
CCOC(=O)C(C(=O)OCC)c1cc(Br)c2noc3c2c1C(=O)c1ccccc1-3	10 µM [falling, partial curve]
CC1CCOC2(O1)C(=O)N(CN1CCN(c3ccccc3F)CC1)c1ccccc12 (centres undefined)	1.26 µM [falling, full curve]
O=C(CSc1cccc(C(F)(F)F)c1)N1CCN(S(=O)(=O)c2ccccc2)CC1	0.01 µM [falling, full curve]
CC(C)C[C@H](N)c1nnc(S(=O)(=O)Cc2cccc(F)c2)o1	6.31 µM [falling, partial curve]

SMILES	AC50
CCOC(=O)c1ccccc1NC(=O)c1c(O)c2ccccc2n(CC)c1=O	7.94 µM [rising, single point]
C/C(=C\CNc1ncnc2nc[nH]c12)CO	31.6 µM [falling, single point]
N#CC(C(=O)OC1CCCCC1)c1nc2ccccc2nc1N1CCCCC1 (centres undefined)	10 µM [rising, partial curve]
O=C(NCC1CCCO1)C1C2C=CC3(CN(Cc4cccs4)C(=O)C13)O2 (centres undefined)	10 µM [falling, partial curve]
Cc1cccc(Nc2nc(NC(C)C)nc(Oc3ccc(=O)n(C)n3)n2)c1	15.8 µM [rising, single point]
c1ccc(CNc2ncnc3ccc(-c4cccnc4)cc23)cc1	3.16 µM [rising, full curve, poor fit]
COC(=O)CN(c1ccc(F)cc1)S(=O)(=O)c1ccc2c(c1)OCCO2	0.00316 µM [falling, full curve, poor fit]
CCNc1ncc2nc(-c3ccc(Cl)cc3)c(=O)n(-c3ccc(OC)cc3)c2n1	2.51 µM [rising, full curve]
Cc1onc(-c2ccccc2)c1C(=O)N1CCOCC1	5.01 µM [falling, single point]
Cc1c(C(=O)OCC2CCCO2)[nH]c2c1C(=O)CC(c1ccc(N(C)C)cc1)C2 (centres undefined)	25.1 µM [falling, single point]
O=C(NCc1ccc2c(c1)OCO2)c1ccc(NS(=O)(=O)c2ccc3c(c2)OCCO3)cc1	25.1 µM [falling, single point]
Cc1nn(CCC(=O)O)c2nc(-c3cccnc3)cc(C(F)(F)F)c12	10 µM [rising, partial curve]
COC(=O)c1cccc(Nc2nc3ccccc3nc2C)c1	5.01 µM [rising, partial curve]
Cn1cnnc1Sc1nc2ccccc2nc1NS(=O)(=O)c1ccccc1	3.98 µM [falling, partial curve]
CNc1nnc(-c2cc3ccccc3oc2=O)s1	10 µM [rising, partial curve]
O=C1CC(N2CCN(c3nc4ccccc4s3)CC2)C(=O)N1c1ccc(F)cc1 (centres undefined)	0.794 µM [rising, single point]
O=C(NCc1cccs1)c1cc2c(s1)-c1ccccc1OC2	15.8 µM [rising, partial curve]
Cn1c(=O)c(C(=O)CN2CCOCC2)c(N)n(Cc2ccccc2)c1=O	0.00398 µM [rising, full curve, poor fit]
Cc1nc2ccc(CCO)cc2s1	0.1 µM [rising, full curve]
Cc1ccc(N2CCCCn3c2nc2c3c(=O)[nH]c(=O)n2C)cc1	7.94 µM [rising, partial curve]
N#Cc1c(NC(=O)CN2CCOCC2)oc(-c2ccccc2)c1-c1ccccc1	25.1 µM [rising, single point]
COC(=O)c1c(-c2ccc(F)cc2)noc1N	15.8 µM [rising, partial curve, poor fit]
Cc1ccc(C)c(-n2c(N)c(C(N)=O)sc2=S)c1	0.794 µM [falling, partial curve, poor fit]
